Test results as given in paper PMC4019565.
Results are given in words; binding and its absence hold for the method and conditions named. In cells and extracts the contact can be indirect. Some results given as binding are weak or reduced against the parent protein; the word gives no strength.

Protein sequences, listed by entry. Tags and fused reporters are not part of them. Lines headed by an entry give the natural chain unless they say otherwise; changes in a name come on top.
UniProt Q92688: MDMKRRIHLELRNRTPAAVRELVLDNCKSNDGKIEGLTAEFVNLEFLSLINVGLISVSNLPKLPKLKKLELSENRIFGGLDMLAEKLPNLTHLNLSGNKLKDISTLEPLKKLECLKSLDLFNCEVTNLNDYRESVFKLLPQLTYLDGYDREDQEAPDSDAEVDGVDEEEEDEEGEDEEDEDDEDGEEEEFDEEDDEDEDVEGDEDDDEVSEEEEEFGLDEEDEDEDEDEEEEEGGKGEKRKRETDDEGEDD

Key:
Assay in all cases: pull-down
[1] = target: Strep-ANP32B (N-terminally Strep-tagged ANP32B) (human) (UniProt Q92688)
[2] = target: C-Strep HeV M (Hendra virus matrix protein with C-terminal Strep-tag II) (Hendra virus) (UniProt O89341)
[3] = target: N-Strep HeV M (Hendra virus matrix protein with N-terminal Strep-tag II) (Hendra virus) (UniProt O89341)

Substance: untagged HeV M (Hendra virus matrix protein) (from UniProt O89341 1-352)
- binding [1]: binds

Substance: acidic leucine-rich nuclear phosphoprotein 32 family member B (ANP32B), endogenous (from UniProt Q92688-1 1-251)
- binding [2]: binds
- binding [3]: binds
